# Assay results as given in PMC12040169 (PLOS Biology, 2025).
# The other results are listed elsewhere or left out.
# System: T1, CTL2-GFP (C. trachomatis L2/434/Bu, GFP-expressing)
# T1 construct: L2/434/Bu, GFP-expressing
# Set-up: species or system HeLa; Intracellular C. trachomatis growth in HeLa cells, bulk GFP fluorescence relative to DMSO
# Conditions: bulk GFP, single well; 28.5 h, 10 µM; inhibitor
row,SMILES,% of control remaining
1,NC(=O)c1cccc(CN2CCOC3(CCN(C(=O)OCc4ccccc4)CC3)C2)c1 [CBK161100T],127.959%
2,O=C(COc1ccc(-c2ccccc2)cc1Cl)N1CCN(C(=O)C2CC2)CC1 [CBK295640],102.485%
3,CC(C)(C)OC(=O)N(c1cncc(N2CCNCC2)n1)[C@@H]1CCOc2ccccc21 [CBK172251G],130.53%
4,O=c1c(-c2nncn2-c2ccccc2)coc2c(O)c(O)ccc12 [CBK266889],153.194%
5,CC(=O)[C@H]1C[C@@H](CC(=O)Nc2cc3cccnc3nc2Cl)C1(C)C [CBK091351],128.961%
6,Cc1nc(CC(=O)N2CCC[C@@H]3[C@H]2CCCCc2ccccc2OCC(=O)N3C)cs1 [CBK292091],83.6459%
7,Cn1ncc2c(NCCCC3CCOC3)nc(C(C)(C)C)nc21 (centres unmarked) [CBK307363],110.18%
8,O=C(c1nccs1)C1CCN(C(=O)C2CCCCC2)CC1 [CBK284175],106.679%
9,O=C(O)[C@H]1CN(C(=O)c2cccs2)C[C@@H]1c1ccc(F)cc1 [CBK283734],151.661%
10,O=C(O)CCC(=O)Nc1ccc(C(=O)N2CCCc3ccccc32)cc1 [CBK269118],81.2756%
11,COc1ccccc1-c1nnc(SCC(=O)Nc2nccs2)o1 [CBK287390],107.467%
12,COc1cc(C2C3=C(CC(C)(C)CC3=O)Nc3ncnn32)cc(OC)c1OC (centres unmarked) [CBK265646],127.374%
13,CC(Oc1ccc(F)cc1)C(=O)N(C)CC1(C)COC1 (centres unmarked) [CBK281702],123.961%
14,CCCC1CCN(c2ncnc(Oc3ccc(C(=O)c4ccc(F)cc4)cc3)c2[N+](=O)[O-])CC1 [CBK116495],92.4138%
15,C1CN(c2nc(N3CCOCC3)nc(N3CCOCC3)n2)CCN1 [CBK261380],100%
16,Cn1cc(CCCC(=O)NCCC2=CCCCC2)c2ccccc21 [CBK061756],100.935%
17,C1=CC2N=C(SCc3ccccc3)OC2C=C1 (centres unmarked) [CBK021412],138.983%
18,O=C(Nc1cccc(Oc2ccccc2)c1)c1ccc2[nH]ccc2c1 [CBK161728],84.7339%
19,COc1cnc(-c2ccccc2OC)c(NC(=O)c2ccccc2)n1 [CBK145261],143.937%
20,O=C(NC(=S)Nc1ccc(C(=O)O)c(Cl)c1)c1ccc(-c2ccc(Cl)cc2)o1 [CBK265063],93.2685%
21,CN(c1ccccc1)c1cc(-c2cccc(O)c2)nc2ccnn12 [CBK037121],88.1887%
22,COc1ccc(CCNC(=O)N2CCN(C3CCN(C)CC3)CC2)cc1OC [CBK155897],131.005%
23,O=C(CC1(C(=O)O)CCCC1)NC1CCS(=O)(=O)C1 (centres unmarked) [CBK286855],128.37%
24,CN(C)CCn1c(=O)c2c(ncn2C)n(C)c1=O [CBK012590],101.954%
25,CCc1[nH]nc(C)c1Cc1c(Cl)cccc1Cl [CBK093598],93.0579%
26,CC(C)CNc1nc(-c2cccnc2)cnc1N [CBK063780],173.683%
27,Cc1ccc2c(c1)C(Oc1cncc(N3CCNCC3)n1)CCO2 (centres unmarked) [CBK172334G],114.813%

row,SMILES,% of control remaining
1,COc1ccc(C(=O)Nc2ccc3c(c2)C(=O)N(CCC(=O)O)C3=O)cc1 [CBK265921],100%
2,O=C(Cn1c[n+]([N-][N+](=O)[O-])cn1)Nc1ncc(Br)cc1Br [CBK262342],100%
3,Cc1ccc(CN2CCC(O)(Cn3ccc4ncccc43)CC2)o1 [CBK284751],143.11%
4,Cc1ccc(NS(=O)(=O)c2cc3c(OC4CCNCC4)nccc3s2)cc1 [CBK046309C],112.228%
5,O=C(Nc1ccccc1)c1ccc(COc2ccc3ccccc3c2)o1 [CBK265897],98.8422%
6,Fc1ccc(CN2CC3CCCC(C2)C3N2CCOCC2)cc1F (centres unmarked) [CBK282270],87.7751%
7,NS(=O)(=O)c1ccc(NC(=S)NNC(=S)Nc2ccc(F)cc2F)cc1 [CBK267102],140.122%
8,Cn1cncc1CN(Cc1ccccc1)C1CC(C)(C)NC(C)(C)C1 [CBK283226],131.828%
9,COc1ccc(OC)c(-c2nc(Nc3ccc(Cl)cc3Cl)sc2CC(=O)O)c1 [CBK264175],93.3723%
10,CN(CC1COc2ccccc2O1)C(=O)CC1CCN(C(=O)CC2CCCCC2)CC1 (centres unmarked) [CBK286265],116.887%
11,O=C1C=C([C@@H]2O[C@H](CO)[C@H](O)C2O)C(=O)N1 (some centres unmarked) [CBK201255],134.772%
12,COc1ccc(CC(=O)NC(c2nnc3ccccn23)C(C)C)cc1 (centres unmarked) [CBK304607],112.462%
13,CCOc1ccccc1-c1noc(-c2nn(-c3ccc(C)cc3)ccc2=O)n1 [CBK288597],113.581%
14,CC1CCCN(C(=O)c2coc(COc3ccc(F)cc3)n2)C1 (centres unmarked) [CBK306874],132.464%
15,O=C(O)c1ccc2c(c1)CCN2S(=O)(=O)c1ccc(S(=O)(=O)N2CCOCC2)cc1 [CBK295625],148.412%
16,CCCCCC/C=C/c1cnc2nc(NC(=O)NCC)ccc2c1 [CBK061880],92.6632%
17,O=C(O)CCN1C(=O)c2ccc(Oc3ccc([N+](=O)[O-])cc3)cc2C1=O [CBK263357],100%
18,N/C(=N\c1nonc1N)NC(=O)c1ccccc1 [CBK006756],109.395%
19,COc1ccc(C(=O)O)cc1NC(=S)NC(=O)c1ccc(-c2ccccc2)cc1 [CBK265064],127.598%
20,CCCC/C=C/c1cnc(N)c(-c2ccc(O)cc2)n1 [CBK064068],160.994%
21,CC(C)[C@H]1CN(Cc2ccco2)CCN1C(=O)NCc1ccccc1 [CBK284274],98.5221%
22,Cn1cc(C2CNCCN2C(=O)c2csc3ccccc23)cn1 (centres unmarked) [CBK304324C],126.774%
23,CCCNC(=O)C[C@@H]1CCN(S(=O)(=O)c2c(C)noc2C)C[C@@H]1CC [CBK288780],126.601%
24,CC(C)Oc1cc(Br)cc(C(=O)N2CCC(C(=O)O)C2)c1 (centres unmarked) [CBK304268C],132.382%
25,COc1ccc(OC(=O)c2ccc3ncccc3c2)cc1 [CBK083572],173.634%
26,CCN(NC(=O)c1cc2cccc(OC)c2o1)c1ccc(C)cc1 [CBK161484],109.318%
27,Cc1onc(-c2c(Cl)cccc2Cl)c1C(=O)N(C)C [CBK160437],128.727%

# Arranged by molecular weight (high to low): 3 of the compounds above
row,SMILES,% of control remaining
10,CN(CC1COc2ccccc2O1)C(=O)CC1CCN(C(=O)CC2CCCCC2)CC1 (centres unmarked) [CBK286265],116.887%
17,O=C(O)CCN1C(=O)c2ccc(Oc3ccc([N+](=O)[O-])cc3)cc2C1=O [CBK263357],100%
20,CCCC/C=C/c1cnc(N)c(-c2ccc(O)cc2)n1 [CBK064068],160.994%

# (next part)

row,SMILES,% of control remaining
1,Nc1nonc1NC(=O)c1ccccc1Cl [CBK019040],105.535%
2,O=C(NC1CCCCC1)c1cc(Br)cnc1NCc1cccnc1 [CBK076439],108.285%
3,O=C1C2CCCCN2C(=O)N1c1cccnc1 (centres unmarked) [CBK162359],113.219%
4,Nc1nccnc1C(=O)Oc1ccccc1 [CBK090311],158.062%
5,CC1CCCCC1NC(=O)Cn1c(=O)n(C(C)C)c2ncccc21 (centres unmarked) [CBK283697],160.48%
6,O=C1N(CN2CCN(c3cccc(C(F)(F)F)c3)CC2)c2ccccc2C12OCCCO2 [CBK294461],111.337%
7,CC1(c2cc(F)ccc2F)NC(=O)N(c2ccncc2)C1=O (centres unmarked) [CBK291253],150.22%
8,Cc1ccc(NC(=O)c2cnc3n(c2=O)CCS3)cc1 [CBK287376],129.199%
9,CC(C)N1CCC[C@H]1c1nc(-c2ccc(-c3cncnc3)nc2)no1 [CBK288892],109.198%
10,Fc1ccc(-c2cncc(NCc3ccco3)n2)c(F)c1 [CBK065834],164.239%
11,Cc1ccc(/C=N/n2c(S)nnc2COc2ccccc2)o1 [CBK265244],111.246%
12,Cc1nnc2sc(-c3cccc(NC(=S)NC(=O)c4cc5ccccc5o4)c3)nn12 [CBK267282],123.538%
13,CCC(CO)Nc1cncc(-c2ccc(C(N)=O)cc2)n1 (centres unmarked) [CBK065577],99.4555%
14,S=c1[nH]nc(-c2ccc(Cl)cc2)n1-c1cccnc1 [CBK086427],110.796%
15,COc1ccc(Cl)cc1NC(=O)C(=O)NCc1ccccn1 [CBK263837],100%
16,CCCCn1c(SCc2nc(-c3cccc(Cl)c3)no2)n[nH]c1=O [CBK295356],123.907%
17,CCN1CCN(C(=O)Cc2ccc(OC)cc2)C(Cc2ccc(-c3ccncc3)cc2)C1=O (centres unmarked) [CBK285804],99.5027%
18,CCC(CC)C(=O)Nc1ccc([C@@H](O)[C@H]2COCC(=O)N2Cc2ccc(OC)cc2)cc1 [CBK289677],125.735%
19,COc1ccc(Cn2c(=O)n(C(=O)c3cccc(S(C)(=O)=O)c3)c3ccccc32)cc1 [CBK106547],133.772%
20,CCC(C)(C)c1ccc(S(=O)(=O)N2CCN(CCCOC3CCCCO3)CC2)cc1 (centres unmarked) [CBK063135],100.617%
21,CN(C)C(=O)CCNC(=O)c1ccc2c(c1)nc(N1CC[C@H](O)C1)n2C [CBK306671],136.408%
22,CCc1nn(CC(=O)NC2CCC2)c(=O)c2cc3sc(C)cc3n12 [CBK284142],124.476%
23,CC(=O)c1ccc(C(=O)Nc2ccc3nc(C)sc3c2)cc1 [CBK287310],166.698%
24,O=C(Cc1ccc(Cl)cc1)NC(=S)Nc1ccccc1[N+](=O)[O-] [CBK263909],115.736%
25,Cc1nn(C)c(C)c1CN(C(=O)c1ccc(C)n(C)c1=O)C1CC1 [CBK281450],81.6834%
26,COc1cccc(C2Nc3ccc4ccccc4c3C3=C2C(=O)CC(C)(C)C3)c1OCC(=O)O (centres unmarked) [CBK263045],98.2648%
